Test results from patent US7943614B2, “Carboxamide compound and use of the same” (Sumitomo Chemical Company, Limited, priority 2005, dated 2011).
Some results were stated once for a whole list of compounds, not compound by compound. For at least one compound, name, drawing or mass did not settle the structure.

tested on: cucumber grey mold (Botrytis cinerea); assay: Cucumber grey mold (Botrytis cinerea) controlling effect test, preventive effect; type: in vivo; conditions: cucumber (Sagamihanpaku), flowable preparation diluted to 500 ppm, foliage spray before inoculation; high humidity at 12° C. for 5 days

| SMILES | area of a lesion in a treated plant relative to an area of a lesion in a non-treated plant [%] |
| --- | --- |
| Cc1c(Cl)c(O)c(C(=O)Nc2ncc(Cl)cn2)c(=O)n1C [compound 16] | ≤ 10 |
| Cc1cc(O)c(C(=O)Nc2ccc(Cl)nn2)c(=O)n1C [compound 12] | ≤ 10 |
| Cc1cc(O)c(C(=O)Nc2ncc(Cl)cn2)c(=O)n1C [compound 11] | ≤ 10 |
| Cc1cc(O)c(C(=O)Nc2nccnn2)c(=O)n1C [compound 7] | ≤ 10 |
| Cc1c(F)c(O)c(C(=O)Nc2ccc(Cl)nn2)c(=O)n1C [compound 19] | ≤ 10 |
| Cn1ccc(O)c(C(=O)Nc2ncc(Cl)cn2)c1=O [compound 18] | ≤ 10 |

tested on: wheat scab (Fusarium culmorum); assay: Wheat scab (Fusarium culmorum) controlling effect test (preventive effect); type: in vivo; conditions: wheat (shirogane komugi), flowable preparation diluted to 500 ppm, foliage spray before spore inoculation; high humidity at 23° C. for 4 days, then greenhouse 23° C. for 3 days

| SMILES | area of a lesion in a treated plant relative to an area of a lesion in a non-treated plant [%] |
| --- | --- |
| Cn1ccc(O)c(C(=O)Nc2cnccn2)c1=O [compound 6] | ≤ 10 |
| Cc1cc(O)c(C(=O)Nc2ncc(Cl)cn2)c(=O)n1C [compound 11] | ≤ 10 |
| Cc1cn(C)c(=O)c(C(=O)Nc2cnccn2)c1O [compound 14] | ≤ 10 |
| Cc1cc(O)c(C(=O)Nc2ncncn2)c(=O)n1C [compound 8] | ≤ 10 |
